Drawing on PubChem BioAssay AID2685 (National Center for Advancing Translational Sciences (NCATS), 2010), this text covers cell number change and AC50 for 63 molecules.

Usually AC50 stands for the concentration giving half of the maximal activity seen. Lower therefore signals activity at low concentration.

This assay in a line: qHTS Assay for Lipid Storage Modulators in Drosophila S3 Cells.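 For cell number change: cells counted by Cell Tracker Red CMTPX staining in the red channel.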 To be noted: BODIPY lipid droplet fluorescence, 18-24 h; for cell number change: measured here: cell count max response, cells fed with added oleic acid. Summed up:
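Drosophila S3 cells got compounds at several concentrations plus oleic acid (400 uM solution). Laser-scanning cytometry with 488 nm excitation read lipid droplets at 500-530 nm and cells at 575-640 nm. Percent activity was relative to 20 uM Triacsin C.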
(In qHTS, concentration-response curves come from the screen itself.)

[1] abbreviates: measured here: cell number channel AC50, cells fed with added oleic acid.
Where [2] appears, read: measured here: lipid fluorescence (Fed channel) AC50, cells fed with added oleic acid.

The other results are listed elsewhere or left out. Shown are side measurements of this screen, not its main read-out; they come without a call. Most of these compounds were active or inconclusive in the main read-out, so they are no random draw. The note in brackets gives the kind of curve behind each potency; many fits are weak.

As for `Cc1cccc(N2CCN(C(=O)CSc3nc4ccccc4nc3N3CC(C)OC(C)C3)CC2)c1C` (stereo not drawn), the cell number change was found to be 38.3%. The AC50 under setting [1] is 23.1 µM [rising, partial curve, poor fit]. Also, the AC50 under setting [2] was 29.1 µM [rising, partial curve].

For the molecule `c1cncc(-c2nc3cc4ccccc4cc3[nH]2)c1`, the cell number change was 13.8%. Also, the AC50 under setting [2] was 20.6 µM [falling, single point].

Take `COc1cc(C#Cc2c(-c3cncn3C)n(C)c3ccc(-c4ccc(OC)nc4)cc23)cc(OC)c1`: the cell number change was -2.91%. Further, under setting [1], the AC50 was 1.16 µM [falling, single point].

For `COc1ccccc1C(=O)NC(=S)Nc1ccc(S(=O)(=O)N2CCN(C)CC2)cc1`, the cell number change was -12%. For the same molecule, under setting [2], the concentration at half-maximal activity (AC50) was 0.58 µM [rising, partial curve].

Regarding `Cc1cc(-c2n[nH]c(=S)n2/N=C/c2ccccc2[N+](=O)[O-])n[nH]1`, the cell number change is -20.1%. The concentration at half-maximal activity (AC50) under setting [2] is 0.58 µM [rising, full curve, poor fit].

In the case of `COCCNC(=O)c1ccc2c(=O)n(Cc3ccco3)c(SCC(=O)NC3CCCC3)nc2c1`, the AC50 under setting [1] was 6.51 µM [rising, partial curve].

As to `CCOc1ccc(CC(=O)NNC(=O)NC2CCCCC2)cc1`, the cell number change is -43.1%. For the same molecule, the AC50 under setting [1] was 29.1 µM [falling, single point]. Moreover, under setting [2], the AC50 was 20.6 µM [falling, single point].

For the molecule `CCCCC(=O)Nc1nc2c(s1)COc1ccccc1-2`, the cell number change was -2.31%.

On to `CCCCn1cnc2c1c(=O)n(CC(=O)c1cc(C)n(C)c1C)c(=O)n2CC(C)C`, for which the cell number change was 65.3%. The concentration at half-maximal activity (AC50) under setting [1] was 29.1 µM [rising, single point].

As to `O=C(NCc1ccccc1)C(c1c(F)cccc1Cl)N(C(=O)c1csnn1)C1CC1` (stereo not drawn), the cell number change came to 0.806%.

Regarding `Nc1nc(C(F)(F)F)c(Br)c(=O)n1N`, the cell number change is -12.2%.

For `Cc1cc(=O)oc2cc3c(cc12)OCCO3`, the cell number change stood at 4.28%. For the same molecule, the AC50 under setting [2] is 14.6 µM [falling, partial curve].

Take `CC(=O)Nc1ccc(CN2CCCC(C(=O)c3cccc(C(F)(F)F)c3)C2)cc1` (stereo not drawn): the cell number change worked out at 2.35%.

As for `Nc1ccn(Cc2ccc(F)cc2)n1`, the cell number change was found to be 11.5%.

On to `Nc1nnc(SCC(=O)OCc2ccccc2)s1`, for which the cell number change was -4.16%. The AC50 under setting [2] is 0.00517 µM [falling, full curve, poor fit].

Regarding `Cc1cc(C)cc(NC(=O)CSc2nc3nc(C)cc(C)c3c(=O)[nH]2)c1`, the cell number change was 10.8%. Moreover, under setting [2], the AC50 was 1.3 µM [rising, full curve, poor fit].

Regarding `CCN(CC)CCCNC(=O)C(C)n1nc(C)c2sc3ccccc3c2c1=O` (stereo not drawn), the cell number change was -58.4%. The AC50 under setting [1] was 5.8 µM [falling, full curve].

With `O=C(c1cccs1)c1coc2ccc(O)cc12`, the cell number change is -44.7%. For the same molecule, the AC50 under setting [1] is 2.06 µM [falling, full curve].

On to `Cc1ccc(C)c(NC(=O)CCC(=O)NNS(=O)(=O)c2ccc(Cl)cc2)c1`, for which the cell number change is -34%. Moreover, the AC50 under setting [1] is 3.66 µM [falling, full curve]. For the same molecule, the AC50 under setting [2] is 0.326 µM [falling, full curve].

With `Cc1cc(-c2ccccc2)oc(=O)c1NC(=O)c1ccccc1`, the cell number change was -11.1%. Also, under setting [2], the AC50 is 35.5 µM [falling, single point].

In the case of `COc1ccccc1/C=C/C(=O)N1CCc2cc(OC)c(OC)cc2C1C` (stereo not drawn), the cell number change was -6.88%. In addition, the AC50 under setting [2] was 6.51 µM [falling, single point].

In the case of `COC(=O)C1=C(C(=O)OC)[C@@H]2N(C)c3ccccc3[C@@]23C[C@@H](C(=O)OC)N(C(=O)c2cc(C)oc2C)C3=N1`, the cell number change is -66.3%. For the same molecule, the AC50 under setting [1] is 4.11 µM [falling, partial curve]. The half-maximal activity concentration (AC50) under setting [2] is 2.59 µM [falling, full curve].

`O=C(/C=C/c1c(F)cccc1Cl)Nc1ccc(S(=O)(=O)Nc2ncccn2)cc1`: the cell number change is 3.47%. The AC50 under setting [2] is 35.5 µM [rising, single point].

Turning to `C/C(=N/O)c1no[n+]([O-])c1/C(C)=N\O`, the cell number change was 17.6%. Further, under setting [2], the AC50 was 3.66 µM [falling, single point].

Turning to `O=C(COc1ccc(C(=O)c2ccccc2)cc1)NC1CCCCCC1`, the cell number change was determined as 0.585%. The AC50 under setting [1] is 1.46 µM [falling, partial curve]. Moreover, the concentration at half-maximal activity (AC50) under setting [2] was 23.1 µM [falling, single point].

`CC(C)Nc1nc(SC(C)C(=O)Nc2ccccc2)nc(N(C)C)n1` (stereo not drawn): under setting [2], the AC50 is 0.731 µM [falling, full curve].

As to `CCCCCCCCCn1cc(C(C)=O)c(=O)[nH]c1=O`, the half-maximal activity concentration (AC50) under setting [1] was 0.58 µM [falling, single point].

On to `COc1ccccc1C1=Nn2c(nnc2C2CCCCC2)SC1`, for which the cell number change is -11.4%. Further, under setting [2], the concentration at half-maximal activity (AC50) is 2.31 µM [rising, partial curve].

`CC1(C2CC(C(F)(F)F)n3nc(C(=O)O)cc3N2)CC1` (stereo not drawn): the cell number change was -15.6%. Moreover, the AC50 under setting [2] was 29.1 µM [falling, single point].

`CC(=O)c1ccc(N2CCN(C(=O)c3ccc4nc[nH]c4c3)CC2)cc1`: the cell number change amounted to 31.5%. Further, the AC50 under setting [1] is 11.6 µM [rising, partial curve, poor fit]. The AC50 under setting [2] is 9.2 µM [rising, partial curve, poor fit].

With `Cn1c2ccccc2c2ncn(CCC3=CCCCC3)c(=O)c21`, the cell number change is -0.908%.

`COCCCNC(=O)c1cc2c(=O)n(C)c3ccccc3c2n1C`: the AC50 under setting [2] is 2.31 µM [rising, single point].

For `C=CCSc1nc2c(c(=O)[nH]c(=O)n2C)n1CC`, the AC50 under setting [1] was 6.51 µM [rising, partial curve, poor fit].

Consider `NC(=O)C1CCN(CC(O)COCc2ccccc2Cl)CC1` (stereo not drawn), for which the cell number change worked out at 6.76%. Also, under setting [2], the AC50 was 0.58 µM [rising, single point].

As to `CCOc1ccc(N=Nc2ccc(O)c3ncccc23)cc1`, the cell number change is -7.67%. Further, the AC50 under setting [2] is 18.4 µM [rising, partial curve, poor fit].

On to `O=C(C1CCCO1)N1CCN(S(=O)(=O)c2cc(C(F)(F)F)ccc2Cl)CC1` (stereo not drawn), for which the cell number change is -26.9%.

As to `C/C(=N\NC(=O)c1nnn(-c2nonc2N)c1-c1cccs1)c1ccc(O)cc1`, the cell number change is -3.54%. Besides, the AC50 under setting [2] is 6.51 µM [falling, single point].

Take `CCCCC(=O)Nc1cnc(NC(=O)c2ccco2)cc1C`: the cell number change worked out at 13.2%. In addition, the AC50 under setting [2] is 18.4 µM [rising, single point].

Regarding `Cc1ccc(NC(=O)Nc2cccs2)cc1`, the cell number change was determined as 10.6%. Further, the AC50 under setting [2] is 6.51 µM [rising, single point].

As to `COc1cc2c(cc1NC(=O)C(c1ccccc1)c1ccccc1)CCCC2`, the cell number change is 74.9%. Besides, the concentration at half-maximal activity (AC50) under setting [2] is 0.651 µM [rising, full curve].

Consider `Cc1ccc(CNC(=S)N2CCOCC2)cc1`, for which the cell number change was 41.8%. The AC50 under setting [1] is 1.3 µM [rising, single point]. Moreover, under setting [2], the AC50 is 18.4 µM [rising, single point].

In the case of `Cc1ccc(NC(=O)c2sc3nc(C)nc(N4CCN(c5ccccn5)CC4)c3c2C)c(C)c1`, the cell number change amounted to 21.6%. Besides, the AC50 under setting [2] is 1.16 µM [rising, partial curve, poor fit].

Turning to `C/C(=N/Nc1nc(C)cc(-c2ccccc2)n1)c1ccco1`, the cell number change was -4.86%. Further, the AC50 under setting [1] was 0.461 µM [rising, full curve]. Besides, the half-maximal activity concentration (AC50) under setting [2] is 6.51 µM [rising, partial curve].

Turning to `CC(C)(C)n1nnnc1C(c1ccncc1)N1CCN(C2CCCCC2)CC1` (stereo not drawn), the cell number change came to 10.3%. For the same molecule, the AC50 under setting [2] is 6.51 µM [falling, partial curve].

As for `Cc1ccc(C)c(NC(=O)NNC(=O)CCc2ccccc2)c1`, the AC50 under setting [2] is 1.16 µM [rising, full curve].

With `COc1ccc(S(=O)(=O)NCCSCc2cccc(C)c2)cc1Br`, the cell number change amounted to 123%. Under setting [1], the AC50 was 23.1 µM [rising, partial curve, poor fit]. For the same molecule, under setting [2], the AC50 is 0.517 µM [rising, partial curve, poor fit].

`CC(C)Cc1ccc(/C(=N/O)C(=O)O)s1`: the cell number change was -24.3%. The AC50 under setting [2] was 29.1 µM [falling, single point].

With `O=c1c2ccccc2nc2n1C(CSc1ccc(F)cc1)CS2` (stereo not drawn), the cell number change turned out to be 2.96%. The AC50 under setting [2] is 0.82 µM [rising, partial curve].

Take `O=C(c1ccc(Cl)c([N+](=O)[O-])c1)N(Cc1cccc(Cl)c1)C1CCS(=O)(=O)C1` (stereo not drawn): the cell number change was -22.2%. Further, under setting [2], the AC50 is 13 µM [falling, partial curve].

As for `CCc1ccc(C(=O)COC(=O)CNC(=O)c2ccc(Br)o2)cc1`, the cell number change is 26.1%.

Consider `CC(NC(=O)Nc1ccc(Br)cc1)C(C)(C)C` (stereo not drawn), for which the cell number change was -10.2%. The concentration at half-maximal activity (AC50) under setting [2] was 29.1 µM [falling, single point].

For `O=S(=O)(Nc1ncccn1)c1ccc(NS(=O)(=O)c2cccc(Cl)c2Cl)cc1`, the cell number change was -36.9%. For the same molecule, the AC50 under setting [1] was 0.92 µM [rising, full curve].

Regarding `COc1ccc(-c2csc(NC(=O)Cc3ccccc3)n2)cc1OC`, the AC50 under setting [2] is 2.91 µM [rising, partial curve].

`CCOC(=O)Cc1csc(NC(=O)COc2ccccc2OC)n1`: the cell number change is -10.2%.

On to `CC(C)c1ccc(C2(C)NC(=O)N(CC(=O)NC3CCCC(C)C3C)C2=O)cc1` (stereo not drawn), for which the cell number change was -42.8%. Also, the AC50 under setting [1] was 29.1 µM [falling, single point].

Turning to `CC(C)C[C@H](NC(=O)Nc1ccccc1F)C(=O)O`, the cell number change was -8.11%. Under setting [2], the AC50 is 3.66 µM [falling, full curve].

Take `CC(=O)Nc1ccc(NC(=O)CN(c2cccc([N+](=O)[O-])c2)S(C)(=O)=O)cc1`: the cell number change is -11.1%. For the same molecule, under setting [2], the AC50 is 3.26 µM [falling, full curve].

For `COc1cc(OC)cc(C(=O)NNC(=S)NCc2ccco2)c1`, the cell number change was 1.85%. Besides, the AC50 under setting [1] was 5.8 µM [falling, single point]. Moreover, the AC50 under setting [2] was 1.03 µM [falling, full curve].

For the molecule `CCc1cc2c(-c3ccccc3)cc(=O)oc2cc1OC(C)C(=O)O` (stereo not drawn), the cell number change amounted to 7.61%. For the same molecule, under setting [2], the AC50 was 29.1 µM [rising, single point].

On to `CCc1cc(=O)oc2c(C)c(O[C@@H]3O[C@H](CO)[C@@H](O)[C@H](O)[C@H]3O)ccc12`, for which the cell number change was 19%.

As to `CCOc1cc(/C=C/C(=O)OCC(=O)NCc2ccco2)cc(Cl)c1OC`, the cell number change was -18.9%.

In the case of `C=CCc1cccc(CNc2c(C)n(C)n(-c3ccccc3)c2=O)c1O`, the cell number change was -19.5%. Moreover, the AC50 under setting [2] is 29.1 µM [falling, single point].

Turning to `CCn1c(=O)cc(SCC(=O)N(C)Cc2ccccc2)c2ccccc21`, the cell number change was determined as 97.6%. The AC50 under setting [1] was 0.164 µM [rising, full curve, poor fit].
